The values below come from the supplement of paper PMC12067093, “Discovery and optimisation of a covalent ligand for TRIM25 and its application to targeted protein ubiquitination” (Chemical Science, 2025).

By UniProt entry, the sequences of proteins in these tests, tags left out. Where a name states a change or a piece, a line headed by the entry shows the natural chain unless it says otherwise.
UniProt P30154, whole entry, looked up: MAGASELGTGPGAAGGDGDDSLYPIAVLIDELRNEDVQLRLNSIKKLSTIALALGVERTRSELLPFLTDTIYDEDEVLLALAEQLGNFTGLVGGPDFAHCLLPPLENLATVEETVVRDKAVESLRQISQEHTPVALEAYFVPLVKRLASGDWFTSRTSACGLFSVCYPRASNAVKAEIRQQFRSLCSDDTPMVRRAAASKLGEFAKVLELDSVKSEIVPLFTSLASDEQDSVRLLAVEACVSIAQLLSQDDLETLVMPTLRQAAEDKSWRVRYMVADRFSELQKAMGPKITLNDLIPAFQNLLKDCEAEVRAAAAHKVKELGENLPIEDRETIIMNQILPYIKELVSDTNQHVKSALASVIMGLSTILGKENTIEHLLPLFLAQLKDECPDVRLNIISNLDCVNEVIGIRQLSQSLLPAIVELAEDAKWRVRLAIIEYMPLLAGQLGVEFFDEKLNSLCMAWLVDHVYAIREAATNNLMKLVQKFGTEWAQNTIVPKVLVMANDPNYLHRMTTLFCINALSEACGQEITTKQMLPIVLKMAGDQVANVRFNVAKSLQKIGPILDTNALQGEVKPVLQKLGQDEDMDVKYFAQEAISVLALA
UniProt Q9UPN7: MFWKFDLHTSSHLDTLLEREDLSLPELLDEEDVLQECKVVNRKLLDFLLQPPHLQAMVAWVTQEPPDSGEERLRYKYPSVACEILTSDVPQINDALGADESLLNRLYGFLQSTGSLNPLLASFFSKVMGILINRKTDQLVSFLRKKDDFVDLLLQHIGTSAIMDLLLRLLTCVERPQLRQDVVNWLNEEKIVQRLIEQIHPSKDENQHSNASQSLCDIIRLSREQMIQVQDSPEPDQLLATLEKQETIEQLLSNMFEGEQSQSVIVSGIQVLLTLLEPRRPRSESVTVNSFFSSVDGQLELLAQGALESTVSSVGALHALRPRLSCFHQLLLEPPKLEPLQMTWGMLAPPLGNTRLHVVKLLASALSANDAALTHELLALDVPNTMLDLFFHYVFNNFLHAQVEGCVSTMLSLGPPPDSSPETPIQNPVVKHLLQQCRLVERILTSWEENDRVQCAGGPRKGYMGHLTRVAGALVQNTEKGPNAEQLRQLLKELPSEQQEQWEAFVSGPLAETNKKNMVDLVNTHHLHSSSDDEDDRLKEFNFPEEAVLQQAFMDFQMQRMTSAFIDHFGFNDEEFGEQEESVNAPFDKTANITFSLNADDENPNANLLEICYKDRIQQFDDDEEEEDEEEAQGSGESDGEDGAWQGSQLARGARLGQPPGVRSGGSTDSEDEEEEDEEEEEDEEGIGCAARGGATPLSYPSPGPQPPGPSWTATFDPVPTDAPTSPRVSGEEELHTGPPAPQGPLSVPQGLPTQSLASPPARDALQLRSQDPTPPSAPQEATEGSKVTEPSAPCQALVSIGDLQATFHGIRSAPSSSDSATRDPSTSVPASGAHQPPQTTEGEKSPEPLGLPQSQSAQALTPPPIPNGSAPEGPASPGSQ
UniProt P50897: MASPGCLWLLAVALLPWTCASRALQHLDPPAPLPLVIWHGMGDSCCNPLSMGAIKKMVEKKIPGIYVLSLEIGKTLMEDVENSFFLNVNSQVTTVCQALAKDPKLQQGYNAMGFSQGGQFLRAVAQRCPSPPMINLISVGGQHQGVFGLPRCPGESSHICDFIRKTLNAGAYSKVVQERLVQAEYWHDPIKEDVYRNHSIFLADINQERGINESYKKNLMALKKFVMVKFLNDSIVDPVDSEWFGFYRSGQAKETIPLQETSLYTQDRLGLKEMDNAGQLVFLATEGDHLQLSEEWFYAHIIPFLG
UniProt Q6NYC8: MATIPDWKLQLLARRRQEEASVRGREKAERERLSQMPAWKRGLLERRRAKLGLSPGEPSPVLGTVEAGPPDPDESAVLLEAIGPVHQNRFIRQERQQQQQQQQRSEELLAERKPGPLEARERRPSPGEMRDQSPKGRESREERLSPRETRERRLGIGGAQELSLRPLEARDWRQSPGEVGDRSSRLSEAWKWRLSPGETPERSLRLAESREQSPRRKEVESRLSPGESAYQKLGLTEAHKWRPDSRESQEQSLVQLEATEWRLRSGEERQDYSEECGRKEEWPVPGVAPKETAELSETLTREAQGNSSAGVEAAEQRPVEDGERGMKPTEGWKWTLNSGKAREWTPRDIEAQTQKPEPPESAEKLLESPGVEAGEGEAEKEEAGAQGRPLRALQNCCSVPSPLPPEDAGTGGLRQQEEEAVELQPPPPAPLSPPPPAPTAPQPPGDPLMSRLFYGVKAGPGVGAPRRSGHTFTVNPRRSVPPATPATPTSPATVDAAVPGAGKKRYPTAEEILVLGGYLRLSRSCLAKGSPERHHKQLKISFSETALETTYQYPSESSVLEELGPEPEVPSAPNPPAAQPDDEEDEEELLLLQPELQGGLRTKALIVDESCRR
UniProt O00743: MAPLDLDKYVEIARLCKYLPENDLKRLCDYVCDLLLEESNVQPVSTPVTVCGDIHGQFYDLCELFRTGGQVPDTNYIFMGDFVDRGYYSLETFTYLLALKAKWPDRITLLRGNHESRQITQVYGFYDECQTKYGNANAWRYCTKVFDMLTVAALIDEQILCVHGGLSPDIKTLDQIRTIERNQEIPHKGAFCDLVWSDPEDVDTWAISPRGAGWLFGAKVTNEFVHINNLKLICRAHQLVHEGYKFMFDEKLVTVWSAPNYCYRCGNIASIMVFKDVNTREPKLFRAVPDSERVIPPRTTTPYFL
UniProt P48147: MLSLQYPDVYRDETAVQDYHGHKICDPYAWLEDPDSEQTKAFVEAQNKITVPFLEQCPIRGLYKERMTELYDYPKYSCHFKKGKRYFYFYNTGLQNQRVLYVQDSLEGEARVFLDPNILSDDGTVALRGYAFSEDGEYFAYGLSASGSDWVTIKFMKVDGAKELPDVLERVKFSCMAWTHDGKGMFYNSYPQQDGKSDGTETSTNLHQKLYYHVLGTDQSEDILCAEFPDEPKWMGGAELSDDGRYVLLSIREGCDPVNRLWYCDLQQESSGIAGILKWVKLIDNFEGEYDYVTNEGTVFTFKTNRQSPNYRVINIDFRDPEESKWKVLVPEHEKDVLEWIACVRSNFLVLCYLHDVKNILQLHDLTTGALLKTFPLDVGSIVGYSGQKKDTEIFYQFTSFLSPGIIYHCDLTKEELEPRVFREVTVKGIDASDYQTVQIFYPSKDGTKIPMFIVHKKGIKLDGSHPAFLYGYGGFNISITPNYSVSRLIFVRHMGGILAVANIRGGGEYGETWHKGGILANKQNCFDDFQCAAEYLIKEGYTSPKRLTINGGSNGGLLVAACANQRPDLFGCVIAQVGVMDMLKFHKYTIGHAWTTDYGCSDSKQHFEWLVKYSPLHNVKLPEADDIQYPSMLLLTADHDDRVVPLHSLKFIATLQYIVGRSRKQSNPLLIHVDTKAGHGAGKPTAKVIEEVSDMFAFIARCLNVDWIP
UniProt P63151: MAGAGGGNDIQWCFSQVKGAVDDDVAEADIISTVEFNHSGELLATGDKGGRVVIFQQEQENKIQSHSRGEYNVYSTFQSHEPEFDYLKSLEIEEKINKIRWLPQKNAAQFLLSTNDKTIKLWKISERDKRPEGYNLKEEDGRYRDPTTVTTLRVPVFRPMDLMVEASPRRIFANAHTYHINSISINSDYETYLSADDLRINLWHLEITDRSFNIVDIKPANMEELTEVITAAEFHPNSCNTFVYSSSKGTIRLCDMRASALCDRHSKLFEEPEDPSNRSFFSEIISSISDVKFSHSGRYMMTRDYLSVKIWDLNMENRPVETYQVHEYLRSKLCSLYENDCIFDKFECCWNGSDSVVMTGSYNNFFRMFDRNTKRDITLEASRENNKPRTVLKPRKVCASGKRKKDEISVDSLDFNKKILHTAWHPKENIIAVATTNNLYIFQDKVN
UniProt Q96SB3: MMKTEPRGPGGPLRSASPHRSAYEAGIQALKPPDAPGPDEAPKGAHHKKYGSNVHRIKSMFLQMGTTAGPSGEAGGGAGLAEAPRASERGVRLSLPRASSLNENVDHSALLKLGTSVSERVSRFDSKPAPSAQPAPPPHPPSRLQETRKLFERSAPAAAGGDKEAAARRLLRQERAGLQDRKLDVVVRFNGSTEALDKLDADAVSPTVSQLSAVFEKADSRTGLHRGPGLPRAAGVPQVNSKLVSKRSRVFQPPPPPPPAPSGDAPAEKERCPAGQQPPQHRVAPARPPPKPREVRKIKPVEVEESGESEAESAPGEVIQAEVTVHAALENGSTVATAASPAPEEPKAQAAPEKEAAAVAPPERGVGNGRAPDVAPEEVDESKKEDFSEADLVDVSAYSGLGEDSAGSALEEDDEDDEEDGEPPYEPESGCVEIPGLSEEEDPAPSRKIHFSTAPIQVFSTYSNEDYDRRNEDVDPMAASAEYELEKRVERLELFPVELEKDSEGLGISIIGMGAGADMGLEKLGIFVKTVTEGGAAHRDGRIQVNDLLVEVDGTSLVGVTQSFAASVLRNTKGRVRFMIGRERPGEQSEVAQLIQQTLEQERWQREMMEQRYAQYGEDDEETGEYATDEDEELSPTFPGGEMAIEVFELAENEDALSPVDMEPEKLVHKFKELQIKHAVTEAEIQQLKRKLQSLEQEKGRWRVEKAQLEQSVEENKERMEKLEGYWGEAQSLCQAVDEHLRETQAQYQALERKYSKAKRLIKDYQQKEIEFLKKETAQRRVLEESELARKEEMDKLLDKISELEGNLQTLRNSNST
UniProt Q8TCU6, whole entry, looked up: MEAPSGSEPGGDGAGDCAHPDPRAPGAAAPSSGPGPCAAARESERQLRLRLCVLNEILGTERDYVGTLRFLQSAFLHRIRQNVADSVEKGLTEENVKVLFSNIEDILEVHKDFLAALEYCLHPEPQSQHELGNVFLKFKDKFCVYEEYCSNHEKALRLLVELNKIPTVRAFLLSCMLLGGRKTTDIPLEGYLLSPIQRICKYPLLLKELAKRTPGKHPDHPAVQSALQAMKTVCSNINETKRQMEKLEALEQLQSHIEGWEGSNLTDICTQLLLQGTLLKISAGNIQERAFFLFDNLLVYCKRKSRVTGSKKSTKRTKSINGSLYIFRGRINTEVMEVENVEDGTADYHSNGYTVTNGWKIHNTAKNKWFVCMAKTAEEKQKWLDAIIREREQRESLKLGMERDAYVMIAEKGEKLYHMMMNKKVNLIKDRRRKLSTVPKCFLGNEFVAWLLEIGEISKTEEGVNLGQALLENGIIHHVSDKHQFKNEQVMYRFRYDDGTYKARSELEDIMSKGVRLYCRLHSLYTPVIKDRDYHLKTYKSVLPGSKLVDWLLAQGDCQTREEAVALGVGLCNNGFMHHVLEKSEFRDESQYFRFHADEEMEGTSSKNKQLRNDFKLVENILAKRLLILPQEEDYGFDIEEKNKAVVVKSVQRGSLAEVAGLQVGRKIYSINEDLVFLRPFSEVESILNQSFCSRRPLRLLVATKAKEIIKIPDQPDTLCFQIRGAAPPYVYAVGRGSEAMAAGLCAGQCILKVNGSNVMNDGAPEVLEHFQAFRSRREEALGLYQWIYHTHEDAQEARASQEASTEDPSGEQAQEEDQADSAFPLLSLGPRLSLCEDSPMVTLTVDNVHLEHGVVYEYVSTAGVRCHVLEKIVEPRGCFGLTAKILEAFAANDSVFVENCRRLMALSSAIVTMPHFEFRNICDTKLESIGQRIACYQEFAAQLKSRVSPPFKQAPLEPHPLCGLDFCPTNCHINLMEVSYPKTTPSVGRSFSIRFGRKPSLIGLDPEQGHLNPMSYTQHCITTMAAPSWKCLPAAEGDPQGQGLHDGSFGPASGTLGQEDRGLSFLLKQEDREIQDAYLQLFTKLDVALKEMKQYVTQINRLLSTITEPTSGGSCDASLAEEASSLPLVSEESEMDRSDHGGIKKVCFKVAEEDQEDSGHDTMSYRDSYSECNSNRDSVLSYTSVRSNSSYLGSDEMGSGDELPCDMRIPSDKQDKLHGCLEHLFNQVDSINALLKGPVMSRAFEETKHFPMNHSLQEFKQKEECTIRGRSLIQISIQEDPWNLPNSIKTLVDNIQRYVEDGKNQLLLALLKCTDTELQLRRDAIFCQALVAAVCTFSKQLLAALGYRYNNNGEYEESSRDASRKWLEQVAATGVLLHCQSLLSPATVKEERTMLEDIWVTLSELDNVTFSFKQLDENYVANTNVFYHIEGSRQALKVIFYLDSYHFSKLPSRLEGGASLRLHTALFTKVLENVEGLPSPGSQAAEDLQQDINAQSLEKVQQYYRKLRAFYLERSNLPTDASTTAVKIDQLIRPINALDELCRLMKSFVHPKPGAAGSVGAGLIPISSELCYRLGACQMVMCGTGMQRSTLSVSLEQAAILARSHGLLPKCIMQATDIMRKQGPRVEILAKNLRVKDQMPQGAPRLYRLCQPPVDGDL
UniProt P32119: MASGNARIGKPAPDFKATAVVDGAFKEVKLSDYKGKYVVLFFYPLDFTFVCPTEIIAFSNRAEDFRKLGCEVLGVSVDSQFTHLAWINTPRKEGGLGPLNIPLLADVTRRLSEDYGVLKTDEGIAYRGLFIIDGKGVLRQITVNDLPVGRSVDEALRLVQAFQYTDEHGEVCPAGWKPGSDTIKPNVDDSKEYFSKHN

This is one part of the list.
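Further: competitive profiling in live THP-1 cells: cysteine peptides tagged with an iodoacetamide desthiobiotin (IA-DTB) probe, intensity after compound treatment relative to DMSO-treated cells.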

Compound in one test: Cc1cc(ccc1-c1ccccc1)C(=O)N1CCCN(CC1)C(=O)CCl [compound 10]
Kind of test: probe-labelled cysteine peptide fold change vs DMSO (competition) (log2 fold change); higher = less target engagement (more negative = stronger competition). As to conditions: 10 µM; THP-1; incubation time: 4 h.
“PPIP5K2_O43314_729_IPDIYDCIK (UniProt O43314)”: the “probe-labelled cysteine peptide fold change” value worked out at 0.0709. Still for that read-out and setting: next, “PPP2R1B_P30154_516_MTTLFCINALSEACGQEITTK (UniProt P30154)”: 0.349; “PPP6R1_Q9UPN7_437_HLLQQCR (UniProt Q9UPN7)”: -0.00658; “PPT1_P50897_128_CPSPPMINLISVGGQHQGVFGLPR (UniProt P50897)”: -0.152. On the same count and under the same terms, the same measure for “PPP1R18_Q6NYC8_611_ALIVDESCRR (UniProt Q6NYC8)”: -0.341; for “PPP6C_O00743_129_QITQVYGFYDECQTK (UniProt O00743)”: 0.0334; for “PREP_P48147_255_EGCDPVNR (UniProt P48147)”: 0.0137. Same read-out and setting: the same measure for “PPP2R2A_P63151_398_KVCASGK (UniProt P63151)”: 0.0616; for “PPP3CB_P16298_162_GNHECR (UniProt P16298)”: 0.0253.

Regarding “PPP6R3_Q5H9R7_519_NTVDLVTTCHIHSSSDDEIDFK (UniProt Q5H9R7)”, the “probe-labelled cysteine peptide fold change” value is 0.257.

As to “PRAG1_Q86YV5_1087_DPVPALPTHPPAQEQDCVVVITR (UniProt Q86YV5)”, the “probe-labelled cysteine peptide fold change” value worked out at 0.0639. On the same count and under the same terms, next, “PRDX3_P30048_229_AFQYVETHGEVCPANWTPDSPTIKPSPAASK (UniProt P30048)”: -0.0592; “PPP1R9B_Q96SB3_270_ERCPAGQQPPQHR (UniProt Q96SB3)”: -0.121; “PPP6C_O00743_192_GAFCDLVWSDPEDVDTWAISPR (UniProt O00743)”: 0.077. Still for that read-out and setting: next, “PPP2R1A_P30153_329_ENVIMSQILPCIK (UniProt P30153)”: 0.0526; “PPP4R3A_Q6IN85_135_DPSVDITQDLVDESEEERFDDMSSPGLELPSCELSR (UniProt Q6IN85)”: -0.303; “PPP3CB_P16298_477_ICSFEEAK (UniProt P16298)”: -0.0998. The same measure, in the same setting: the same measure for “PRDX6_P30041_47_DFTPVCTTELGR (UniProt P30041)”: -0.122; for “PPP3R1_P63098_154_ISFEEFCAVVGGLDIHKK (UniProt P63098)”: 0.0939.

The test is the same for the next values; noted with them: 50 µM; THP-1; incubation time: 4 h.
As for “PPP6R2_O75170_665_FGAPHASESCSK (UniProt O75170)”, the “probe-labelled cysteine peptide fold change” value is -0.338. The same measure, in the same setting: next, “PPP1R9B_Q96SB3_270_CPAGQQPPQHR (UniProt Q96SB3)”: -0.264; “PREB_Q9HCU5_128_CGAETQHEGLELR (UniProt Q9HCU5)”: -0.119; “PPP1R10_Q96QC0_463_VPWVCPR (UniProt Q96QC0)”: 0.000192.

Take “PPP2R2A_P63151_13_AGAGGGNDIQWCFSQVK (UniProt P63151)”: the “probe-labelled cysteine peptide fold change” value is -0.13.

For the target “PPM1B_O75688_272_LEVSDDLENVCNWVVDTCLHK (UniProt O75688)”, the “probe-labelled cysteine peptide fold change” value turned out to be 0.113. With “PREX1_Q8TCU6_867_CHVLEK (UniProt Q8TCU6)”, the “probe-labelled cysteine peptide fold change” value is -0.0476. For the target “PPP2CB_P62714_20_ELDQWVEQLNECK (UniProt P62714)”, the “probe-labelled cysteine peptide fold change” value amounted to 0.11. On the same count and under the same terms, the same measure for “PREP_P48147_25_ICDPYAWLEDPDSEQTK (UniProt P48147)”: 0.929. On the same count and under the same terms, the same measure for “PPM1G_O15355_351_CVVSEAGK (UniProt O15355)”: -0.105; for “PPWD1_Q96BP3_287_AYPTSVCFSPDGK (UniProt Q96BP3)”: 0.156; for “PRDX2_P32119_172_LVQAFQYTDEHGEVCPAGWK (UniProt P32119)”: 0.251. Same read-out and setting: next, “PPP1R18_Q6NYC8_611_ALIVDESCR (UniProt Q6NYC8)”: 0.0294; “PPM1H_Q9ULR3_239_IPHECLVIGALESAFK (UniProt Q9ULR3)”: -0.195. In the case of “PREX1_Q8TCU6_52_LCVLNEILGTER (UniProt Q8TCU6)”, the “probe-labelled cysteine peptide fold change” value was found to be 0.2. On the same count and under the same terms, next, “PPME1_Q9Y570_312_GLSNLFLSCPIPK (UniProt Q9Y570)”: 0.192. The same measure, in the same setting: the same measure for “PRDX4_Q13162_51_EEECHFYAGGQVYPGEASR (UniProt Q13162)”: 0.21; for “PPIP5K2_O43314_729_IPDIYDCIK (UniProt O43314)”: 0.134. Same read-out and setting: next, “PPP2R1B_P30154_516_MTTLFCINALSEACGQEITTK (UniProt P30154)”: -0.219; “PPP6R1_Q9UPN7_437_HLLQQCR (UniProt Q9UPN7)”: 0.0142. “PPT1_P50897_128_CPSPPMINLISVGGQHQGVFGLPR (UniProt P50897)”: the “probe-labelled cysteine peptide fold change” value stood at 0.286. Turning to “PPP1R18_Q6NYC8_611_ALIVDESCRR (UniProt Q6NYC8)”, the “probe-labelled cysteine peptide fold change” value is -0.164. The same measure, in the same setting: the same measure for “PPP6C_O00743_129_QITQVYGFYDECQTK (UniProt O00743)”: 0.309; for “PREP_P48147_255_EGCDPVNR (UniProt P48147)”: -0.401.

With “PPP2R2A_P63151_398_KVCASGK (UniProt P63151)”, the “probe-labelled cysteine peptide fold change” value is -0.0498.
